The other results are listed elsewhere or left out.
Compound: Cc1cc(ccc1-c1ccccc1)C(=O)N1CCCN(CC1)C(=O)CCl [compound 10]
Assay: probe-labelled cysteine peptide fold change vs DMSO (competition) (log2 fold change); higher = less target engagement (more negative = stronger competition)
Conditions: THP-1, incubation time: 4 h
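Also: competitive profiling in live THP-1 cells: cysteine peptides tagged with an iodoacetamide desthiobiotin (IA-DTB) probe, intensity after compound treatment relative to DMSO-treated cells.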

Protein sequences, listed by entry. Tags and fused reporters are not part of them. Lines headed by an entry give the natural chain unless they say otherwise; changes in a name come on top.
UniProt P09874, whole entry, looked up: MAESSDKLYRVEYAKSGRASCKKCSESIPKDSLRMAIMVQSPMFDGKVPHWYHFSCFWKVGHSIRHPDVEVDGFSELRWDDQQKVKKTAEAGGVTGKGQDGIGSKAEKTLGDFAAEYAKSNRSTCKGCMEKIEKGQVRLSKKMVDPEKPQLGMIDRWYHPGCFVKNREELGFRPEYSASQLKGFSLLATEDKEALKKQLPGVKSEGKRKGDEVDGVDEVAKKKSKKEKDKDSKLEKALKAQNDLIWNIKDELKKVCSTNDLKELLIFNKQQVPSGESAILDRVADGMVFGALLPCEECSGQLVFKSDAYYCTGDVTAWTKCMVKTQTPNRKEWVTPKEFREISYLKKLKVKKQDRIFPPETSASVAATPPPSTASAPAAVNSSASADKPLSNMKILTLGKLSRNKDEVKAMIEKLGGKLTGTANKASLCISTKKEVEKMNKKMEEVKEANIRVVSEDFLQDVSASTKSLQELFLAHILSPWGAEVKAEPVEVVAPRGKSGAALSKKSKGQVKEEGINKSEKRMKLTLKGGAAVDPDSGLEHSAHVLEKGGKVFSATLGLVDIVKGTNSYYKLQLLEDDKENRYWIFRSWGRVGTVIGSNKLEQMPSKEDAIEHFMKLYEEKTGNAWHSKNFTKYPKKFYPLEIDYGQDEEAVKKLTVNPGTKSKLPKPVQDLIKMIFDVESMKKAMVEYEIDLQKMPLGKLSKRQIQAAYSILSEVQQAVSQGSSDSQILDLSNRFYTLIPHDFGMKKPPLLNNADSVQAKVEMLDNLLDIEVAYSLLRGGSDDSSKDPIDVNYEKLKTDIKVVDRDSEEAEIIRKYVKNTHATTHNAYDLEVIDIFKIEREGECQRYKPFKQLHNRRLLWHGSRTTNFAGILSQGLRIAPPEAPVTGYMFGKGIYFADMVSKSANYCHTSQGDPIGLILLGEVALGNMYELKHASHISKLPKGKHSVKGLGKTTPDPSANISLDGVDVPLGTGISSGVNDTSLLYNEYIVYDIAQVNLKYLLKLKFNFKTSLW
UniProt P43034: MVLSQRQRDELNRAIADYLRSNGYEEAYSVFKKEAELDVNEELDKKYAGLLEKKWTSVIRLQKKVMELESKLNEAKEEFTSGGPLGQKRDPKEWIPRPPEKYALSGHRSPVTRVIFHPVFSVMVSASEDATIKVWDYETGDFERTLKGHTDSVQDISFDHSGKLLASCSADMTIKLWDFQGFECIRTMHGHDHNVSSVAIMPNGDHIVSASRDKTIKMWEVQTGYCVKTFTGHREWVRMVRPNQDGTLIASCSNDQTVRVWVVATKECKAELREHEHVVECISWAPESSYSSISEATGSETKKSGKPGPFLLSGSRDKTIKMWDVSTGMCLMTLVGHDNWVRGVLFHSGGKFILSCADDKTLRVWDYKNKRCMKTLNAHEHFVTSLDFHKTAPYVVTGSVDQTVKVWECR
UniProt O95453: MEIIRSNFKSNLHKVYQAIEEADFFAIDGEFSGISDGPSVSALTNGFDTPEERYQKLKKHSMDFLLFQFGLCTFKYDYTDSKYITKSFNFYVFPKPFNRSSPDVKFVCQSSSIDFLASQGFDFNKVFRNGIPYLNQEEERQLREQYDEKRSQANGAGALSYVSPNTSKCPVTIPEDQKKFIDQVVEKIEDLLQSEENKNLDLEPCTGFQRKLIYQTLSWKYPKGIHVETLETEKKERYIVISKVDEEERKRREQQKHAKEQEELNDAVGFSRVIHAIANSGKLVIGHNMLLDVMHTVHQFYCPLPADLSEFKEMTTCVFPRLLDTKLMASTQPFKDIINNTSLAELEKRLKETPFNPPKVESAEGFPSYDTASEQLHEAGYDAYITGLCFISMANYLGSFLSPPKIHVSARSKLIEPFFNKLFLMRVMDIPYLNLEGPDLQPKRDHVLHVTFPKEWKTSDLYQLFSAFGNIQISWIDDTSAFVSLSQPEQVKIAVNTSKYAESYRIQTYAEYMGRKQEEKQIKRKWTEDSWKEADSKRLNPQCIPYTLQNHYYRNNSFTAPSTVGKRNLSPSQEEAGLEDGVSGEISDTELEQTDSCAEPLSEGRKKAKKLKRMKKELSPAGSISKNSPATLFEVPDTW
UniProt P22234: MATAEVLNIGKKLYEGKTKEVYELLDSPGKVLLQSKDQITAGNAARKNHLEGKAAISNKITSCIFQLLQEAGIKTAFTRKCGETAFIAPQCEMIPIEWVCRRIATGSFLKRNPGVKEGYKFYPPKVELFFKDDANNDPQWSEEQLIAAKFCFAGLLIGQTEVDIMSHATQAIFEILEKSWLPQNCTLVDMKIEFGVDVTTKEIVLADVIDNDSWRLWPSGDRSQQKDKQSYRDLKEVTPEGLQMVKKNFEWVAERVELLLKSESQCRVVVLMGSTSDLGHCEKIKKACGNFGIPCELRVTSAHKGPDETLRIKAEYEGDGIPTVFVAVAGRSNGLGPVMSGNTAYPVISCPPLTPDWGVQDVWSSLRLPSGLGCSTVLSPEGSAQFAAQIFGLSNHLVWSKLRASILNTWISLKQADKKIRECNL
UniProt Q8N573: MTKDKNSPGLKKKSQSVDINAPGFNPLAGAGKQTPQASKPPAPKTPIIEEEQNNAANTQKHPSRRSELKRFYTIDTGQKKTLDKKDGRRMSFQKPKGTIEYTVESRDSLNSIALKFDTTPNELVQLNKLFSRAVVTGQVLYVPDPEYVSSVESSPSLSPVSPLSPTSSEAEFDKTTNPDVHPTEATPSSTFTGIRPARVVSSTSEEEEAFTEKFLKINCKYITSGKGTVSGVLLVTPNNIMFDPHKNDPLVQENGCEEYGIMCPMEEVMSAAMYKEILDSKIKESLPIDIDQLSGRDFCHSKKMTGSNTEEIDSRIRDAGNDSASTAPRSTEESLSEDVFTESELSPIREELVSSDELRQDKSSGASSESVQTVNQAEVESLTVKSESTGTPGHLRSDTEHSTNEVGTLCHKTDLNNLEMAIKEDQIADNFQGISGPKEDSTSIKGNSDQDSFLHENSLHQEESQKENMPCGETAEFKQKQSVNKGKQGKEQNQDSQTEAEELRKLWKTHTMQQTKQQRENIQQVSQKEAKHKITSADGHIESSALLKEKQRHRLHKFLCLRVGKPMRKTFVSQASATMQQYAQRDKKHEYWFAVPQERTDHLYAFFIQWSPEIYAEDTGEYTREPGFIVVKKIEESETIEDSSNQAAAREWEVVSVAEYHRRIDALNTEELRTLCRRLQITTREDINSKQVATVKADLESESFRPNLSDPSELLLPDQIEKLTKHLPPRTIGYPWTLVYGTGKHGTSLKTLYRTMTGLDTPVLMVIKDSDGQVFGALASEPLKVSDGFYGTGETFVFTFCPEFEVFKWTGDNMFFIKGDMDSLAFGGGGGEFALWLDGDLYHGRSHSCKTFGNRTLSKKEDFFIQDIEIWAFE
UniProt Q13177, whole entry: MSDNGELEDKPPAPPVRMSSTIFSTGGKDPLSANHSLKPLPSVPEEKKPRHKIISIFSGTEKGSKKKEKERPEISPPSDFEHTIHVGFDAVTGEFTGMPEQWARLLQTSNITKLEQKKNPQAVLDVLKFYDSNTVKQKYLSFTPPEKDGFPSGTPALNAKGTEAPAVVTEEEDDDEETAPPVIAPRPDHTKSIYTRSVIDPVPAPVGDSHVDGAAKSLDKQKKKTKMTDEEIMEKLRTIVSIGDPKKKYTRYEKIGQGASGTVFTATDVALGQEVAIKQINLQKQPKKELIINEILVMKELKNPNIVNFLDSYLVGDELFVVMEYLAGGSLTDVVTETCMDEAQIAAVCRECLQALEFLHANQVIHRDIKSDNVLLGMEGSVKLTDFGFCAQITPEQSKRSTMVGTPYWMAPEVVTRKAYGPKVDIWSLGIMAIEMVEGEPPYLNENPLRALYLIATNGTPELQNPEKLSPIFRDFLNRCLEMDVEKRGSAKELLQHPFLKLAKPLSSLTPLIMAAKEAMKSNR
UniProt Q86VP3, whole entry: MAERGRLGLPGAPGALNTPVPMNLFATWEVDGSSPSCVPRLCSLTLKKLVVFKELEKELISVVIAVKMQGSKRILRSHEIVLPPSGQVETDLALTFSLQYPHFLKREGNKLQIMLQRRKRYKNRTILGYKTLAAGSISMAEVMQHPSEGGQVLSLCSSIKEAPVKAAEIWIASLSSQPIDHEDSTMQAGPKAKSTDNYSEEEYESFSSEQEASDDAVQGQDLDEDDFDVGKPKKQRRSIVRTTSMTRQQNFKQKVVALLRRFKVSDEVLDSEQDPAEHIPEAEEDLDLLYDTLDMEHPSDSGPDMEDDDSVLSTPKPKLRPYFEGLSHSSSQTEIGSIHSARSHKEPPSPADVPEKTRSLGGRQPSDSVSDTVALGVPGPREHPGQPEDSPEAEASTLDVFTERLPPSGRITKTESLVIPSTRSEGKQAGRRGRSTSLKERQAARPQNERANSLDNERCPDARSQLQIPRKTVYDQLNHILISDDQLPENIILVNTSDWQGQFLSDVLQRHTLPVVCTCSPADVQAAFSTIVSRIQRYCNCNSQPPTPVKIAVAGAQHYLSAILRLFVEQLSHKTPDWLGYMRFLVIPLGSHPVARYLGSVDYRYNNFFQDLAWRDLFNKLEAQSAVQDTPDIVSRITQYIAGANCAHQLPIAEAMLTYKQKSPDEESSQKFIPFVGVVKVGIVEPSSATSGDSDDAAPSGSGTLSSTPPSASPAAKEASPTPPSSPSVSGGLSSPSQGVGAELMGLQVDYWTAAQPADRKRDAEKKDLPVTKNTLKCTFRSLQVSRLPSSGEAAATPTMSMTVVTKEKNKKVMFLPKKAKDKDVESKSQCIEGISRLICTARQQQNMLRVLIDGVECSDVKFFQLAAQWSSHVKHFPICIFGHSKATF
UniProt Q504Q3: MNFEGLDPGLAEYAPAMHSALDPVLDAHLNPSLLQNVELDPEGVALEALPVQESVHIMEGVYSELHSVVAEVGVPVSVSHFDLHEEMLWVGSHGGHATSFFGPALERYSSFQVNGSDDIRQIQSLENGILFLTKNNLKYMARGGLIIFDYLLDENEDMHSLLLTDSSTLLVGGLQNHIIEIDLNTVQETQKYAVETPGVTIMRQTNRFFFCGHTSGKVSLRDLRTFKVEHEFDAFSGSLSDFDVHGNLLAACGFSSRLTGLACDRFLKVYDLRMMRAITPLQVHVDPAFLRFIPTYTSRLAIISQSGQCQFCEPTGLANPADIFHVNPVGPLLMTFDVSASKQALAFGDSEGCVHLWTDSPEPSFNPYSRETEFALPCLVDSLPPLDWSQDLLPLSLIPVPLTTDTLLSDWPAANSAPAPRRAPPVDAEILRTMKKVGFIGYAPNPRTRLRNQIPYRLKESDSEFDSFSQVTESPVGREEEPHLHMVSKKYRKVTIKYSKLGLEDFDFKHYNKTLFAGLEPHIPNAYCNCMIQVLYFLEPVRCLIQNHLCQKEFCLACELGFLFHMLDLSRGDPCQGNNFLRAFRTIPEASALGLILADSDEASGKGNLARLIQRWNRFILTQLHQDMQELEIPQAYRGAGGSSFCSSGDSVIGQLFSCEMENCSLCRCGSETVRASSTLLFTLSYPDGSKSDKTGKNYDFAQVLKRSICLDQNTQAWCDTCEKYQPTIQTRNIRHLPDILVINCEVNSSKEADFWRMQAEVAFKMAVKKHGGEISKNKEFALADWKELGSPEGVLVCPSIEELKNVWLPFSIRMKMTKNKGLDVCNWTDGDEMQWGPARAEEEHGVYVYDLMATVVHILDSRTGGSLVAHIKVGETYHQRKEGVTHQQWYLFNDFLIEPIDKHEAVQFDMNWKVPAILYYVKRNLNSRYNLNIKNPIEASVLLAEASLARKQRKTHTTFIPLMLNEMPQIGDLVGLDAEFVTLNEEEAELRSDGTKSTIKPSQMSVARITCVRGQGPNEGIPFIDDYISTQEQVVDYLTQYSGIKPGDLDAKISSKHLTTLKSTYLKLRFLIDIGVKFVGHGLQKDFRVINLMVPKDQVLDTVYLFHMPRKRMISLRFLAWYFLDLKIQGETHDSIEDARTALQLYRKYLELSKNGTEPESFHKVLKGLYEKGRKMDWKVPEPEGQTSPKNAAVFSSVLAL
UniProt O75914, whole entry, looked up: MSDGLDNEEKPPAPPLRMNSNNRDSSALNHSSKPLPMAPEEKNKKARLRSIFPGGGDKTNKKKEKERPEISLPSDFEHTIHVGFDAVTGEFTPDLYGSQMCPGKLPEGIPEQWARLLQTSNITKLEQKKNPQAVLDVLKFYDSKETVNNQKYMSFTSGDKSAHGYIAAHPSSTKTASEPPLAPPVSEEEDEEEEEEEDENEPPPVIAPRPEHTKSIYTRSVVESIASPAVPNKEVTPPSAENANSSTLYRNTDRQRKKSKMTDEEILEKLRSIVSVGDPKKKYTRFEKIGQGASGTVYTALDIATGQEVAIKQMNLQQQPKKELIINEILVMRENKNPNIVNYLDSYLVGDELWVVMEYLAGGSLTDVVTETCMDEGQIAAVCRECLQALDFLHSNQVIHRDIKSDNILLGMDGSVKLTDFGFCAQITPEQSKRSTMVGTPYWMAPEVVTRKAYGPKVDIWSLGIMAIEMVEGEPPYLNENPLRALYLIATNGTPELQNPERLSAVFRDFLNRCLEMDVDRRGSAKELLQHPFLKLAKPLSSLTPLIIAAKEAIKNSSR

Row | Target | probe-labelled cysteine peptide fold change (10 µM) | probe-labelled cysteine peptide fold change (50 µM)
1 | PAPOLG_Q9BWT3_604_TVSPPTVCTIPTVVGR (UniProt Q9BWT3) | -0.2 | -0.352
2 | PARP1_P09874_56_VPHWYHFSCFWK (UniProt P09874) | -0.208 | 0.093
3 | PAFAH1B1_P43034_281_EHEHVVECISWAPESSYSSISEATGSETK (UniProt P43034) | -0.0287 | 0.0931
4 | PARN_O95453_543_LNPQCIPYTLQNHYYR (UniProt O95453) | -0.149 | 0.0448
5 | PAFAH1B1_P43034_226_MWEVQTGYCVK (UniProt P43034) | 0.333 | 0.413
6 | PAICS_P22234_81+91+100_CGETAFIAPQCEMIPIEWVCR (UniProt P22234) | 0.177 | -0.182
7 | OXR1_Q8N573-2_50_FEDYLREPAQGDLGCGSPPHRPPAPSSPEGPDTGQK (UniProt Q8N573) | 0.0174 | -0.41
8 | PAK2_Q13177_352_ECLQALEFLHANQVIHR (UniProt Q13177) | 0.441 | 0.0289
9 | PACS2_Q86VP3_880_HFPICIFGHSK (UniProt Q86VP3) | -0.181 | -0.0895
10 | PARP1_P09874_256_VCSTNDLK (UniProt P09874) | 0.122 | 0.184
11 | PAN2_Q504Q3_263_LTGLACDR (UniProt Q504Q3) | 0.0943 | 0.121
12 | PARP1_P09874_24_CSESIPK (UniProt P09874) | -0.00603 | -0.4
13 | PA2G4_Q9UQ80_85_GIAFPTSISVNNCVCHFSPLK (UniProt Q9UQ80) | 0.203 | -0.024
14 | PAK3_O75914_424_LTDFGFCAQITPEQSKR (UniProt O75914) | -0.151 | -0.562
